These are yes or no findings as the source states them, for the method shown. In cells and extracts the contact can be indirect. Here binding means that the protein was enriched with, or labelled near, the bait; the list need not be complete.

By UniProt entry, the sequences of proteins in these tests, tags left out.
UniProt Q15397: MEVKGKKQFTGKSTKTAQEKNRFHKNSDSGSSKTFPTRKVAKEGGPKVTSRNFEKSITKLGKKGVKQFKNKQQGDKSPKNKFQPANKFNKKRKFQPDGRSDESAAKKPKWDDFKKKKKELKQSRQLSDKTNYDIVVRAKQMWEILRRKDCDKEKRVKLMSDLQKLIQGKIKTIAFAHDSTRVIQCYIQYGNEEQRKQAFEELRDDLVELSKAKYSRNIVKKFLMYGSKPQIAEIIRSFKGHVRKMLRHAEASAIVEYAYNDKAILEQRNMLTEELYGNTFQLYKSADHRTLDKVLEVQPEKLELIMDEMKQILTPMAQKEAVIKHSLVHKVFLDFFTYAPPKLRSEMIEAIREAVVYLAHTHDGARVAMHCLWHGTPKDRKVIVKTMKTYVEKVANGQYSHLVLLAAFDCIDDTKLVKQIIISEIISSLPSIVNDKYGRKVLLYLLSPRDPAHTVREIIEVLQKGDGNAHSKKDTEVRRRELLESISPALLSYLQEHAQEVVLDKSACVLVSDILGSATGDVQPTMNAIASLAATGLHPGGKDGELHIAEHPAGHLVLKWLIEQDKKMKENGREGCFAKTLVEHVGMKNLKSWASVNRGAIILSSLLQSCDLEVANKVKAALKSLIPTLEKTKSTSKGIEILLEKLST
UniProt P06748: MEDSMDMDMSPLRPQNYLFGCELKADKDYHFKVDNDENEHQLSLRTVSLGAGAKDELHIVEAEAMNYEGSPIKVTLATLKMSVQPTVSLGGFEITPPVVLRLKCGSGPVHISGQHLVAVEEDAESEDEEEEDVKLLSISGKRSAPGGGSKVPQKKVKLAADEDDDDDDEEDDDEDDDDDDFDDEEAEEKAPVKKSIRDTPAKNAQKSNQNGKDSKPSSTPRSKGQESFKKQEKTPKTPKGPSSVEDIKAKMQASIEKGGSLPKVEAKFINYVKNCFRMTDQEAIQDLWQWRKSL

The values that follow come from paper PMC8856959.

The test deals with Puf-A (human (endogenous in HCT116 and H1299)) (UniProt Q15397). Nature of the test: affinity purification with mass spectrometry; proteins immunoprecipitated by Puf-A antibody, analysed by mass spectrometry.

As for “nucleophosmin (from UniProt P06748 1-294)”, the binding entry was “binds”.
